Record: PubChem BioAssay AID1259424 (University of Nebraska Medical Center, 2018)
Purpose: 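Rank knockdowns across the genome by resemblance to the KSR1 depletion profile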 (primary screen). Cells: human HCT116 colon cancer cells. Reagent: siRNA pool against human genes, 50 nM. Measured: 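Log2 levels of six mRNAs (branched-DNA multiplex), adjusted by two reference genes and the non-targeting median, then scored against the average KSR1 knockdown pattern as Pearson r and euclidean distance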. Direction: mean correlation with KSR1 profile: higher = expression change more like KSR1 knockdown.
In all, the deposit lists about 14,000 reagents; shown is a random part of them. 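Higher correlation or smaller distance means closer resemblance to KSR1 loss; control wells, including KSR1 knockdowns, recur on many plates.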 A reagent listed more than once was tested more than once; the source does not tell the runs apart. Further read-outs or replicates are left out here. Reagent sequences are not shown. The record does not give: the time to read-out.

ADRA1A (GeneID 148)
- mean correlation with KSR1 profile: 0.586

ADRA1A (GeneID 148)
- mean correlation with KSR1 profile: 0.00626

STAU1 (GeneID 6780)
- mean correlation with KSR1 profile: 0.0878

LILRA4 (GeneID 23547)
- mean correlation with KSR1 profile: -0.764

RNF5 (GeneID 6048)
- mean correlation with KSR1 profile: -0.303

BST2 (GeneID 684)
- mean correlation with KSR1 profile: -0.258

HYAL1 (GeneID 3373)
- mean correlation with KSR1 profile: -0.272

PLA2G1B (GeneID 5319)
- mean correlation with KSR1 profile: 0.645

AGBL2 (GeneID 79841)
- mean correlation with KSR1 profile: 0.609

RAPH1 (GeneID 65059)
- mean correlation with KSR1 profile: -0.227

LINC00474 (GeneID 58483)
- mean correlation with KSR1 profile: -0.434

CITED4 (GeneID 163732)
- mean correlation with KSR1 profile: 0.735

Copied from the listing for reference:
RNF5 (GeneID 6048)
- mean correlation with KSR1 profile: -0.303

BST2 (GeneID 684)
- mean correlation with KSR1 profile: -0.258

HYAL1 (GeneID 3373)
- mean correlation with KSR1 profile: -0.272

Additional reagents follow:
PROP1 (GeneID 5626)
- mean correlation with KSR1 profile: 0.686

LAMB1 (GeneID 3912)
- mean correlation with KSR1 profile: 0.294

CYP2C18 (GeneID 1562)
- mean correlation with KSR1 profile: -0.423

MARK3 (GeneID 4140)
- mean correlation with KSR1 profile: 0.719

CYLD (GeneID 1540)
- mean correlation with KSR1 profile: 0.255

DES (GeneID 1674)
- mean correlation with KSR1 profile: -0.286

TLR3 (GeneID 7098)
- mean correlation with KSR1 profile: -0.199

PNPLA2 (GeneID 57104)
- mean correlation with KSR1 profile: -0.0405

INTS9 (GeneID 55756)
- mean correlation with KSR1 profile: -0.666

CHRNE (GeneID 1145)
- mean correlation with KSR1 profile: 0.248

GNAI2 (GeneID 2771)
- mean correlation with KSR1 profile: -0.468

MRPL9 (GeneID 65005)
- mean correlation with KSR1 profile: -0.618

DNAAF11 (GeneID 23639)
- mean correlation with KSR1 profile: -0.0656

SHROOM2 (GeneID 357)
- mean correlation with KSR1 profile: -0.349

RPL18 (GeneID 6141)
- mean correlation with KSR1 profile: 0.274

OCRL (GeneID 4952)
- mean correlation with KSR1 profile: -0.268

NEDD4L (GeneID 23327)
- mean correlation with KSR1 profile: 0.299

WSB2 (GeneID 55884)
- mean correlation with KSR1 profile: -0.408

ALX4 (GeneID 60529)
- mean correlation with KSR1 profile: -0.503

VN1R10P (GeneID 387316)
- mean correlation with KSR1 profile: 0.619

RPS4Y1 (GeneID 6192)
- mean correlation with KSR1 profile: -0.00085

ANKRD53 (GeneID 79998)
- mean correlation with KSR1 profile: 0.647

HTR7 (GeneID 3363)
- mean correlation with KSR1 profile: 0.697

GASK1B (GeneID 51313)
- mean correlation with KSR1 profile: 0.364
